Assay results from PMC10653861, “Three small partner proteins facilitate the type VII-dependent secretion of an antibacterial nuclease” (mBio, 2023).
No constants are given. Whether binding was seen depends on the method and setting. Binding seen in cells or lysates may run through a third protein. Some entries that bind do so weakly or less than the wild type.

Amino acid sequences for entries named in this document (tags omitted). Residues count along the entry.
UniProt Q2G179, residues 1-477: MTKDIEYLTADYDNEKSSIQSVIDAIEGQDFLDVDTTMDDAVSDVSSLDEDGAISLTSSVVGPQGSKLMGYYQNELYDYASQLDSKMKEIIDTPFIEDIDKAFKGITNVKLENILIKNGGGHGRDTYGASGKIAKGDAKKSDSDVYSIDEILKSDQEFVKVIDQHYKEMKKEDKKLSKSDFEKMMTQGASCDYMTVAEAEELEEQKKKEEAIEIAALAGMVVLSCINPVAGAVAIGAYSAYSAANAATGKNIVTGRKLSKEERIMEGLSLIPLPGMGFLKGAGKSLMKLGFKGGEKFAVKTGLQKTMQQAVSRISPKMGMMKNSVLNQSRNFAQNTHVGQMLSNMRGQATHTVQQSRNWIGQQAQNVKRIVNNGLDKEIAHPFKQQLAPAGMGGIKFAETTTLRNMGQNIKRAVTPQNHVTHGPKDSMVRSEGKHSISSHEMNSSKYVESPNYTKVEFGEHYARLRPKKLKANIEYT

Biological target: EsaD_(1-477)-his (Staphylococcus aureus) (UniProt Q2G179)
Experiment: pull-down + SEC

| Binder | binding |
| --- | --- |
| EsaE (protein, UniProt Q2G181 1-224) MKDVKRIDYFSYEELTILGGSKLPLVNFELFDPSNFEEAKAALIEKELVTENDKLTDAGFKVATLVREYISAIVNIRINDMYFAPFSYEKDEYILLSRFKNNGFQIRIINKDIAWWSIVQSYPLLMRQEKSNDWDFKQIDDETLENLNNESIDTIGRVLEIEIYNHQGDPQQSLYNIYEQNDLLFIRYPLKDKVLNVHIGVINTFIRELFGFDTDENHINKAEE | binds |
| EsxB (protein, UniProt Q2G182 1-104) MGGYKGIKADGGKVDQAKQLAAKTAKDIEACQKQTQQLAEYIEGSDWEGQFANKVKDVLLIMAKFQEELVQPMADHQKAIDNLSQNLAKYDTLSIKQGLDRVNP | binds |
